Measured values: PubChem BioAssay AID2685 (National Center for Advancing Translational Sciences (NCATS), 2010)
The list shows a part of the results. Shown are side measurements of this screen, not its main read-out; they come without a call. The list favours compounds with an active or inconclusive main result. Potencies come from curve fits of mixed quality, noted in brackets.

Assay: qHTS Assay for Lipid Storage Modulators in Drosophila S3 Cells;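 for cell number change: cells counted by Cell Tracker Red CMTPX staining in the red channel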
Settings: BODIPY lipid droplet fluorescence, 18-24 h; for cell number change: measured here: cell count max response, cells fed with added oleic acid
How it was run: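 Drosophila S3 cells loaded with oleic acid (400 uM, as added) and compounds at several concentrations; lipid droplets imaged by 488-nm laser-scanning cytometry, 500–530 nm intensity and object ratio to cell channel. Percent activity normalized to 20 uM Triacsin C.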

[1] = measured here: cell number channel AC50, cells fed with added oleic acid
[2] = measured here: lipid fluorescence (Fed channel) AC50, cells fed with added oleic acid

SMILES	cell number change [%]	AC50 [1]	AC50 [2]
CCCCNC(=O)CCC(=O)Nc1ccc2nc(N3CCN(C)CC3)cc(C)c2c1	10.4	0.461 µM [falling, single point]	0.517 µM [falling, single point]
CCN1CCN(S(=O)(=O)CC2(C)C3CCC2(C)C(=O)C3Br)CC1 (configuration not stated)	-11.2	–	–
CC1C(=O)Nc2ccc(S(=O)(=O)NCc3ccc(Cl)cc3)cc2NC1=O (configuration not stated)	7.78	–	0.058 µM [falling, full curve, poor fit]
O=C(Nc1cccc(-c2cn3c(n2)SCC3)c1)c1ccc2ccccc2n1	41.5	29.1 µM [rising, single point]	5.8 µM [rising, full curve]
CC(=O)Nc1cc(NC(C)=O)cc(C(=O)OCC(=O)c2ccc3c(c2)NC(=O)CO3)c1	-6.83	–	–
COc1cc2ccccc2cc1C(=O)Nc1ccc(C)cn1	23.3	–	–
CCOC(=O)/C=c1\s/c(=C\c2c(OC)ccc3ccccc23)c(=O)n1CC(=O)NCC1CCCO1 (configuration not stated)	–	3.26 µM [rising, single point]	5.8 µM [rising, single point]
CC1CCCC(NC(=O)COC(=O)/C=C/c2ccco2)C1C (configuration not stated)	2.29	–	0.0651 µM [falling, full curve]
COc1cc2c(cc1OC)CN(C(=O)CSc1nc(N)c(C#N)cc1C#N)CC2	10.5	–	1.16 µM [rising, partial curve]
C=CCSc1nc(N)c(C(=O)Nc2ccccc2OC)cc1C(=O)Nc1ccccc1	–	–	6.51 µM [rising, partial curve, poor fit]
CCCCC(=O)OCc1nc(N)nc(Nc2ccccc2C)n1	35.5	11.6 µM [rising, partial curve]	29.1 µM [rising, single point]
Cc1cccc(NC(=O)c2ccccc2SCc2ccc(F)cc2)n1	30	–	18.4 µM [rising, partial curve, poor fit]
O=S(=O)(Oc1ccccc1N1CCCCC1)c1ccccc1	-47.3	32.6 µM [falling, single point]	29.1 µM [falling, single point]
CCOC(=O)N/N=C/c1cn(Cc2ccc(Cl)cc2)c2ccccc12	-55.9	0.00517 µM [falling, full curve, poor fit]	3.66 µM [rising, partial curve, poor fit]
CCc1cc2c(SCC(=O)N3CCCC3=O)ncnc2s1	-8.9	–	0.146 µM [rising, full curve, poor fit]
CCCCCn1c(C(C)NC(=O)CCC)nc2ccccc21 (configuration not stated)	–	0.82 µM [rising, partial curve]	0.58 µM [rising, single point]
Cc1ccc2cc3cc(C(=O)N(CC(=O)NC4CCCC4)c4cccc(C)c4C)sc3nc2c1	-40.7	–	3.26 µM [falling, partial curve]
Cc1cccc(NC(=S)NCc2cccn2C)c1	61.5	11.6 µM [rising, partial curve]	13 µM [rising, partial curve]
CCOc1ccc(-c2nc(CSc3nnc(N)s3)cs2)cc1OC	14.3	–	0.411 µM [rising, partial curve, poor fit]

SMILES	cell number change [%]	AC50 [1]	AC50 [2]
Cc1c(NC(=O)CN2C(=O)NC(C)(c3ccc(Cl)cc3)C2=O)c(=O)n(-c2ccccc2)n1C (configuration not stated)	-22	2.91 µM [falling, full curve, poor fit]	3.66 µM [falling, full curve]
Cc1cc(NC(=O)CNC(=O)C2CCCCC2)no1	-1.66	–	6.51 µM [falling, single point]
Cc1cc(NC(=O)CCCn2nc([N+](=O)[O-])c(Cl)c2C)no1	24.4	–	–
O=C(c1ccccc1SCc1ccccc1)N1CCCCCC1	–	3.66 µM [rising, single point]	–
CCOc1ccc(OCCC(=O)OCC(=O)Nc2ccc3c(c2)OCCO3)cc1	-42.9	20.6 µM [falling, single point]	23.1 µM [falling, single point]
Cc1ccc(COc2ccc(/C=N/NC(=O)c3nnn(-c4nonc4N)c3COc3ccc(F)cc3)cc2)cc1	15.8	–	0.13 µM [rising, full curve]
C#CCOCCOCCOCCNc1nc(N2CCN(C(=O)CCCCCCCCCCNC(=O)[C@H]([C@@H](C)CC)n3cc(CCCCN=C(N)N)nn3)CC2)nc(N2CCN(C(=O)CCCCCCCCCCNC(=O)[C@H](CCCCN)n3cc(C[C@@H](C)CC)nn3)CC2)n1	-86.6	6.51 µM [falling, partial curve]	13 µM [falling, partial curve]
O=C(COC(=O)c1ncc(Cl)c(Cl)c1Cl)NCc1cccs1	-25.6	–	18.4 µM [falling, single point]
Cc1onc(-c2ccccc2Cl)c1C(=O)N1CCN(C/C=C/c2ccccc2)CC1	-8.7	–	0.116 µM [falling, full curve]
CCOc1ccc(N2C(=O)CC(N)C2=O)cc1 (configuration not stated)	-72.1	18.4 µM [falling, single point]	23.1 µM [falling, single point]
CCOC(=O)C1(CCc2ccccc2)CCN(Cc2ccc(O)cc2)CC1	-13.6	–	0.731 µM [falling, full curve]
Cc1cccc(NS(=O)(=O)c2ccc(C(=O)NCC(c3ccco3)N3CCCCC3)cc2)c1C (configuration not stated)	–	4.11 µM [rising, single point]	–
COc1cc(NC(=S)Nc2ccc(S(=O)(=O)N3CCOCC3)cc2)cc(OC)c1OC	58.3	2.31 µM [rising, partial curve]	13 µM [rising, partial curve]
O=C(CCCc1nc(-c2ccccc2Cl)no1)NC1CCCC1	3.88	–	6.51 µM [falling, single point]
CCOc1ccc(N2C(=O)CC(Sc3nc(CC(C)C)ccc3C#N)C2=O)cc1 (configuration not stated)	9.67	–	–
COc1cc(C=O)ccc1OCc1c(C)noc1C	-110	11.6 µM [falling, partial curve]	1.3 µM [falling, partial curve]
COC(=O)c1ccccc1Sc1c(/C=N/OCc2ccc(Cl)cc2)c(C(F)(F)F)nn1C	3.31	–	1.3 µM [rising, partial curve]
Cc1cc(=O)[nH]c(SC(C(=O)O)c2ccccc2)n1 (configuration not stated)	81.5	4.11 µM [rising, full curve]	3.66 µM [rising, full curve]
OCCC1CN(Cc2cnn(-c3ccccc3Cl)c2)CCN1Cc1ccsc1 (configuration not stated)	25.7	–	25.9 µM [rising, partial curve]

SMILES	cell number change [%]	AC50 [1]	AC50 [2]
Cc1snc(S(=O)(=O)/C(C#N)=N\Nc2ccccc2)c1C#N	7.16	–	1.84 µM [rising, full curve]
COc1ccc(CC2=C(O)c3ccccc3C(=O)C2=O)cc1	-21.5	–	29.1 µM [falling, single point]
Cc1cccc(Oc2nc(-c3cccc([N+](=O)[O-])c3)nc3ccccc23)c1C	-8.63	–	–
COc1ccc(OC)c(-n2c(-c3cnccn3)n[nH]c2=S)c1	60.4	29.1 µM [rising, single point]	–
COc1ccc(CCNC(=O)c2cc(-c3ccncc3)nc3c(Cl)cccc23)cc1OC	-26.8	4.11 µM [falling, full curve, poor fit]	29.1 µM [falling, single point]
COc1ccc2c(c1)CC/C(=C\C=C\c1ccccc1OC)C2=O	-22.6	–	29.1 µM [falling, single point]
Cc1cc(C)nc(SCCc2ccncc2)n1	–	–	0.58 µM [rising, single point]
COc1cccc(OCC(O)CO)c1 (configuration not stated)	15.2	–	0.461 µM [falling, full curve, poor fit]
COc1ccc(OC)c(/C=N/c2c(-c3ccc(O)c(OC)c3)nc3ccccn23)c1	-32.5	16.4 µM [falling, single point]	16.4 µM [falling, single point]
Cc1cc(-c2ccc(S(=O)(=O)N3CCCCC3)s2)on1	4.18	0.92 µM [rising, full curve, poor fit]	–
Cc1cc(S(=O)(=O)N2CCOCC2)ccc1OCC(=O)NCC1CCCO1 (configuration not stated)	-6.67	–	29.1 µM [falling, partial curve, poor fit]
CC(=O)Nc1ccc(OCCOc2ccc(/C=C3/C(=N)N4C=CSC4=NC3=O)cc2)cc1	-48.8	5.17 µM [falling, partial curve]	2.59 µM [falling, full curve]
O=C(Nc1ccc(C(=O)O)cc1)Nc1cccc([N+](=O)[O-])c1	-4.82	–	6.51 µM [falling, single point]
CC1N=C(N)C(c2nc3ccccc3n2C)=C1O (configuration not stated)	4.42	4.11 µM [rising, single point]	–
Cc1ccc2nc(SCC(=O)N3CC(C)OC(C)C3)nc(=O)n2c1 (configuration not stated)	20.1	–	–
Cc1ccc(NC(=O)CN2C(=O)N/C(=C/c3ccc(C)o3)C2=O)cc1	-30.6	–	32.6 µM [falling, single point]
CC(C)c1nnc(NC(=O)CCC(=O)N2CCN(c3ccccc3F)CC2)s1	-13.9	–	4.11 µM [falling, partial curve, poor fit]
CC1CN(C(=O)c2cc3cc([N+](=O)[O-])ccc3s2)CC(C)O1 (configuration not stated)	-82.5	–	0.731 µM [rising, single point]

A different layout for 3 compounds above.
CCOc1ccc(OCCC(=O)OCC(=O)Nc2ccc3c(c2)OCCO3)cc1
  cell number change [%]: -42.9
  AC50 [1]: 20.6 µM [falling, single point]
  AC50 [2]: 23.1 µM [falling, single point]
Cc1cccc(Oc2nc(-c3cccc([N+](=O)[O-])c3)nc3ccccc23)c1C
  cell number change [%]: -8.63
COc1ccc2c(c1)CC/C(=C\C=C\c1ccccc1OC)C2=O
  cell number change [%]: -22.6
  AC50 [2]: 29.1 µM [falling, single point]
